Screening data, single-dose tests

Measurements from “University of Dundee, Small-Polar-MMV Screening Library” (2021), ChEMBL document CHEMBL3988442.

A: 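Whole-parasite assay of Trypanosoma brucei over 72 hours; the read-out is not stated. Tested at 30 µM. Direction is inferred from retests: higher values go with stronger inhibition. Values scatter widely below zero; nearly all retest evidence comes from the higher of the two concentrations used. Size under these conditions: about 64,000 compounds, about 940 of them at 50% or above in at least one test.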
B: 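Assay of Toxoplasma gondii numbers, read through their beta-galactosidase reporter with a colour substrate. Tested at 10 µM. The record gives no direction; the compounds picked for IC50 retests had high values, so higher reads as fewer parasites. Size under these conditions: about 67,000 compounds, about 260 of them at 50% or above in at least one test.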
C: 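Cell assay of Leishmania donovani living inside macrophages; the read-out is not stated. Concentration: 30 µM. Direction is inferred from retests: higher values go with stronger inhibition. Size under these conditions: about 69,000 compounds, about 1,000 of them at 50% or above in at least one test.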

Results are given as percent effect.
The record does not define 0% and 100%; most values in the screen are far below 50% and negative numbers occur (in some assays of this library far below -100).
This is an unselected part of the compounds tested.
A dash means the value is not listed here; it may have been measured.

structure,A,B,C
CN1C[C@@H](C(=O)NC(C)(C)C)[C@@]2(CCc3ccccc3C(=O)N2)C1,5.084%,13.91%,17.37%
CC1Cc2ccccc2N1Cc1occc1C(=O)O (stereo unspecified),-40.65%,24.92%,-9.48%
O=C(O)C(F)(F)F.[H][C@@]12CCN(C3CCOCC3)C[C@@]1([H])O[C@@H](C(=O)N1CCCC1)C2,-41.23%,-6.238%,-2.272%
COc1ccc(C(C)N2CCN(Cc3nccn3C)CC2)cc1Cl (stereo unspecified),3.959%,-1.271%,-8.742%
CC(C)(C)c1noc(CCC(=O)N2CCN(Cc3ccc(Cl)s3)CC2)n1,21%,6.699%,-8.175%
Cc1nn(C)c(C)c1-c1cnc(C2CCCN(C)C2)cn1 (stereo unspecified),11.64%,-19.54%,20.56%
[H][C@]12CCCCN1CCC[C@@]2(O)CNCC1(Cn2ccnc2)CC1,0.4403%,-11.56%,25.33%
Cc1noc(C2CN(S(C)(=O)=O)Cc3ccnn3C2)n1 (stereo unspecified),-6.789%,12.29%,17.34%
CC(C)CN1CC(C(=O)NCc2cccnc2-n2cccn2)CC1=O (stereo unspecified),-,1.685%,19.27%
CCC(O)CN1CCN(C(=O)c2csc(COC)n2)CC1 (stereo unspecified),-79.11%,9.422%,-3.178%
CN(CCc1ccncc1)CC1CCCN1c1cccnn1 (stereo unspecified),-,0.09911%,24.13%
[H][C@]12CC[C@](O)(CC1)C(CN1CCOCC1)N2C(=O)C1CCC1 (stereo partly specified),-0.5232%,-9.634%,15.54%
CN(CC(N)=O)S(=O)(=O)c1ccc(F)cc1Cl,2.452%,4.027%,6.713%
Cc1cnn(CCNCC(O)COc2ccc(Cl)cc2Cl)c1 (stereo unspecified),-,18.06%,17.59%
Cc1ccccc1CN(C)C(=O)Cn1nc(-c2ccc(F)cc2)oc1=O,-10.14%,11.07%,-27.47%
CN(CCOc1ccccc1F)S(=O)(=O)CC1CCOCC1,10.05%,4.921%,19.44%
[H][C@]12CCN(S(=O)(=O)C3CC3)C[C@@]1([H])OCCN(C(C)=O)C2,-87.79%,-24.56%,20.33%
Cc1cc(C(=O)NC2CCN(CC(N)=O)CC2)nn1C(C)(C)C,-58.75%,5.981%,6.733%
O=C(CCOc1cccc(F)c1)N1CCCC(n2cncn2)C1 (stereo unspecified),12.25%,-5.343%,19.91%
O=C(O)C(F)(F)F.[H][C@]12CCCN(Cc3cccc(C)n3)[C@@]1([H])CN(C(=O)c1ccco1)C2,-18.06%,4.102%,16.27%
CC(C)C1CN(C(=O)c2nccnc2N)CCS1 (stereo unspecified),10.4%,10.73%,9.636%

Repeated from the top, 3 entries:

Result for CN1C[C@@H](C(=O)NC(C)(C)C)[C@@]2(CCc3ccccc3C(=O)N2)C1 was A: 5.084%; B: 13.91%; C: 17.37%.
Result for CC1Cc2ccccc2N1Cc1occc1C(=O)O (stereo unspecified) was A: -40.65%; B: 24.92%; C: -9.48%.
Result for O=C(O)C(F)(F)F.[H][C@@]12CCN(C3CCOCC3)C[C@@]1([H])O[C@@H](C(=O)N1CCCC1)C2 was A: -41.23%; B: -6.238%; C: -2.272%.